Data reported in patent US20090315454A1, “IRIDIUM COMPLEX COMPOUND, ORGANIC ELECTROLUMINESCENT DEVICE OBTAINED BY USING THE SAME, AND USES OF THE DEVICE” (Showa Denko K.K., priority 2006, published 2009).

Test: Evaluation of luminescent characteristics of organic EL device
Details: for External quantum efficiency (%): at 100 cd/m^2, average of four devices; for Emission Uniformity / Luminescent color: organic EL device, luminescent layer of complex in poly(N-vinylcarbazole)
Method: An organic EL device was produced with use of a substrate (manufactured by Nippo Electric Co., Ltd.) provided with ITO (indium tin oxide) which was composed of a 25 mm square glass substrate and in which two stripe ITO electrodes having a width of 4 mm were formed as anodes on one surface. First, the substrate with the ITO electrodes (anodes) was spin coated with poly(3,4-ethylenedioxythiophene)-polystyrenesulfonic acid (trade name “Baytron P”, manufactured by Bayer AG) at 3500 rpm for a coating time of 40 seconds. The coating was dried at 60° C. for 2 hours under reduced pressure in a vacuum drying machine to form an anode buffer layer.
Next, a coating solution for forming a luminescent layer was prepared. Specifically, 15 mg of the facial iridium complex compound (A) synthesized in Example 1 and 135 mg of poly(N-vinylcarbazole) were dissolved in 9850 mg of chloroform (guaranteed grade, manufactured by Wako Pure Chemical Industries, Ltd.). The solution obtained was filtrated through a filter having a pore diameter of 0.2 μm to give a coating solution. Then, the coating solution was applied on the anode buffer layer by a spin coating method at 3000 rpm for a coating time of 30 seconds. The coating was dried at room temperature (25° C.) for 30 minutes, whereby a luminescent layer was formed. […] Next, the substrate on which the luminescent layer was formed was placed in a vapor deposition apparatus. Barium was deposited in a thickness of 5 nm at a deposition rate of 0.01 nm/second. Subsequently, aluminum was deposited as cathodes in a thickness of 150 nm at a deposition rate of 1 nm/second. Consequently, a device 1 was manufactured. The barium/aluminum layers formed two stripes having a width of 3 mm which were orthogonal to the extending direction of the anodes. Thus, four organic EL devices 4 mm in length and 3 mm in width were prepared on the glass substrate.
The organic EL device was allowed to emit light by application of a voltage by means of programmable direct-current voltage/current source TR6143 manufactured by ADVANTEST CORPORATION. The emission luminance thereof was measured by means of luminance meter BM-8 manufactured by TOPCON CORPORATION. […] The luminance half-life in Table 2 is a relative value based on the measured value (100) of a device 7 described later.
Devices 2 to 6 were prepared by the same method as producing the device 1, except that the facial complex compound (A) was changed to the luminescent materials shown in Table 2. The luminescent characteristics of these devices were evaluated in the same manner as in the device 1.
Devices 7 and 8 were prepared by the same method as producing the device 1, except that the facial complex compound (A) was changed to the luminescent materials shown in Table 2. The luminescent characteristics of these devices were evaluated in the same manner as in the device 1.

SMILES | External quantum efficiency (%) | Emission Uniformity | Luminescent color
CC(C)(C)c1ccnc(-c2[c-]cc(F)cc2F)c1.CC(C)(C)c1ccnc(-c2[c-]cc(F)cc2F)c1.CC(C)(C)c1ccnc(-c2[c-]cc(F)cc2F)c1.[Ir+3] [Compound (A) meridional complex] | 5.2 | Uniform | Blue
CCCCCc1ccnc(-c2c(F)cc(F)c[c]2[Ir]([c]2cc(F)cc(F)c2-c2cc(CCCCC)ccn2)[c]2cc(F)cc(F)c2-c2cc(CCCCC)ccn2)c1 [Compound (B) facial complex] | 5.7 | Uniform | Blue
CCCCC(CCCC)c1ccnc(-c2c(F)cc(F)c[c]2[Ir]([c]2cc(F)cc(F)c2-c2cc(C(CCCC)CCCC)ccn2)[c]2cc(F)cc(F)c2-c2cc(C(CCCC)CCCC)ccn2)c1 [Compound (C) facial complex] | 6.1 | Uniform | Blue
CCCc1cc(-c2c(F)cc(F)c[c]2[Ir]([c]2cc(F)cc(F)c2-c2cc(CCC)c(CC)cn2)[c]2cc(F)cc(F)c2-c2cc(CCC)c(CC)cn2)ncc1CC [Compound (D) facial complex] | 6.4 | Uniform | Blue
